Results on 53 compounds are retold here after the supplement of paper PMC8732350.

Where a name gives a salt, the structure may show the parent alone. ± gives the standard deviation of the averaged measurements. Some of the results follow. Repeats in this data set agree poorly, so a single value says little.

This assay deals with A549. The assay can be described thus: surface PD-L1 immunofluorescence intensity relative to IFN-gamma-only control (ratio); higher = more PD-L1 expression. The conditions noted are these: 10 µM; exposure time 24 h; IFN-gamma 100 ng/mL.
For `O=C(O)C(O)Cc1ccc(O)c(O)c1` (stereo not drawn) [Sodium Danshensu], the “surface PD-L1 immunofluorescence intensity” value was 0.896. `N=C(N)NC(=O)Cc1c(Cl)cccc1Cl` [Guanfacine hydrochloride]: the “surface PD-L1 immunofluorescence intensity” value amounted to 1.05 ± 0.069. The value for `O=C1Nc2ccccc2/C1=C1/Nc2ccccc2C1=O` [Indirubin] was 1.04; that for `Nc1ncnc2c1ncn2[C@@H]1O[C@H](CO)[C@@H](O)[C@H]1O` [Adenosine (Adenocard)] was 0.975.

For the compound `Clc1ccc(CSC(Cn2ccnc2)c2ccc(Cl)cc2Cl)cc1` (stereo not drawn) [Sulconazole nitrate], the “surface PD-L1 immunofluorescence intensity” value worked out at 1.02. As for `COc1ccccc1N1CCN(CCN(C(=O)C2CCCCC2)c2ccccn2)CC1`, the figure is 0.971. As for `CN1C(=O)CC(c2ccccc2)C1=O` (stereo not drawn) [Phensuximide], the figure is 1.05; as for `O=C(NCCCN1CCC2(CC1)OCc1ccccc12)[C@H]1CCCN1Cc1ccccc1`, 1.1; as for `Fc1ccc(Cl)cc1-c1nc(Nc2ccncc2)c2nccnc2n1`, 0.987.

On to `CN(C)CCN(Cc1ccccc1)c1ccccn1` [Tripelennamine hydrochloride], for which the “surface PD-L1 immunofluorescence intensity” value amounted to 1.02. The value for `CC1CNc2c(cccc2S(=O)(=O)N[C@@H](CCCNC(=N)N)C(=O)N2CC[C@@H](C)C[C@@H]2C(=O)O)C1` (stereo partly drawn) [Argatroban] was 1.03 ± 0.068; that for `O=C(/C=C/c1ccccc1)NC(NC(=S)Nc1cccc2cccnc12)C(Cl)(Cl)Cl` (stereo not drawn) [Salubrinal] was 1.01. In the case of `CCCOC(=O)c1cc(O)c(O)c(O)c1` [N-Propyl gallate], the “surface PD-L1 immunofluorescence intensity” value is 0.971. `CCCSc1nc(N[C@@H]2C[C@H]2c2ccc(F)c(F)c2)c2nnn([C@@H]3C[C@H](OCCO)[C@@H](O)[C@H]3O)c2n1` [Ticagrelor]: the “surface PD-L1 immunofluorescence intensity” value is 1.1. The value for `C=C1C[C@@]2(O)O[C@@]3(C[C@H]2C(C)C)[C@@H](C)CC[C@@H]13` [Curcumol] was 1.12; that for `O=C(O)COCCN1CCN(C(c2ccccc2)c2ccc(Cl)cc2)CC1` (stereo not drawn) [Cetirizine dihydrochloride] was 1.1; that for `N[C@@H]1CONC1=O` [D-cycloserine] was 0.991. As for `C#C[C@]1(OC(C)=O)CC[C@H]2[C@@H]3CCC4=CC(=NO)CC[C@@H]4[C@H]3CC[C@@]21CC` (mixture of isomers) [Norgestimate], the “surface PD-L1 immunofluorescence intensity” value turned out to be 0.925. Consider `CC(=O)O[C@]1(C(C)=O)CC[C@H]2[C@@H]3C=C(Cl)C4=CC(=O)[C@@H]5C[C@@H]5[C@]4(C)[C@H]3CC[C@@]21C` [Cyproterone acetate], for which the “surface PD-L1 immunofluorescence intensity” value worked out at 1.08 ± 0.12. For the compound `Clc1ccc(CO/N=C(\Cn2ccnc2)c2ccc(Cl)cc2Cl)c(Cl)c1` [Oxiconazole Nitrate], the “surface PD-L1 immunofluorescence intensity” value came out at 0.957.

Regarding `COc1cccc(CCc2ccccc2OCC[C@@H]2C[C@@H](O)CN2C)c1`, the “surface PD-L1 immunofluorescence intensity” value was found to be 0.956. For the compound `COc1cc2nc(N(C)CCCNC(=O)C3CCCO3)nc(N)c2cc1OC` (stereo not drawn) [Alfuzosin hydrochloride], the “surface PD-L1 immunofluorescence intensity” value worked out at 1.08. The value for `Clc1ccc(Cn2c(CN3CCCC3)nc3ccccc32)cc1` [Clemizole hydrochloride] was 1. For the compound `O=C(O)/C=C/c1ccc(O)c(O)c1` [Caffeic acid], the “surface PD-L1 immunofluorescence intensity” value came out at 0.987.

As for `CN1C[C@@H]2C[C@H]1CN2c1cc2c(cc1F)c(=O)c(C(=O)O)cn2C1CC1` [Danofloxacin Mesylate], the “surface PD-L1 immunofluorescence intensity” value was found to be 0.943. For `N[C@@H](Cc1c[nH]c2ccc(O)cc12)C(=O)O` [5-hydroxytryptophan (5-HTP)], the “surface PD-L1 immunofluorescence intensity” value worked out at 1.07. The value for `CC(=O)Nc1nc2c(Oc3cc(-c4ccc(C(F)(F)F)cc4)ncn3)cccc2s1` was 1.08; that for `O=C(O)Cc1nn(Cc2ccc(Br)cc2F)c(=O)c2ccccc12` [Statil] was 0.869. Regarding `NC(N)=Nc1ccc(Cl)cc1` [4-Chlorophenylguanidine hydrochloride], the “surface PD-L1 immunofluorescence intensity” value stood at 0.994. With `N=C(N)Nc1ccc(C(=O)Oc2ccc3cc(C(=N)N)ccc3c2)cc1` [Nafamostat mesylate], the “surface PD-L1 immunofluorescence intensity” value is 1.08.

Turning to `C[C@]12CC[C@H](O)CC1=CC[C@@H]1[C@@H]2CC[C@]2(C)C(n3cnc4ccccc43)=CC[C@@H]12` [Galeterone (TOK-001)], the “surface PD-L1 immunofluorescence intensity” value was 1.06. The value for `CC1=C(/C=C/C(C)=C/C=C/C(C)=C/C(=O)O)C(C)(C)CCC1` [Retinoic Acid] was 1.04; that for `CC1=C(/C=C/C(C)=C/C=C/C(C)=C/C(=O)O)C(C)(C)CCC1` [Retinoic acid, all trans] was 0.99; that for `CC1=C(/C=C/C(C)=C/C=C/C(C)=C/C(=O)O)C(C)(C)CCC1` [Retinoic acid] was 1.03 ± 0.085. Take `NC(=O)c1cc[n+](CC2=C(C(=O)[O-])N3C(=O)[C@@H](NC(=O)[C@@H](c4ccccc4)S(=O)(=O)O)[C@H]3SC2)cc1` [Cefsulodin sodium salt]: the “surface PD-L1 immunofluorescence intensity” value is 1.03. The value for `CCCCCC#CCC#CCC#CCC#CCCCC(=O)O` [5,8,11,14-Eicosatetraynoic acid] was 1.06; that for `CC(=O)Oc1ccccc1C(=O)O` [Acetylsalicylic acid] was 1.08.

Take `CNS(=O)(=O)CCc1ccc2[nH]cc(C3CCN(C)CC3)c2c1` [Naratriptan HCl]: the “surface PD-L1 immunofluorescence intensity” value worked out at 0.911. The value for `COc1ccc2ccc(=O)oc2c1CC=C(C)C` [Osthole (Osthol)] was 1.13; that for `N=C(N)NS(=O)(=O)c1ccc(N)cc1` [Sulfaguanidine] was 0.867. As for `CC1(C)[C@H](C(=O)O)N2C(=O)C[C@H]2S1(=O)=O` [Sulbactam], the figure is 0.971; as for `Cc1ncc(CO)c(CO)c1O` [Pyridoxine hydrochloride], 0.899.

As for `CN1CCc2cc(Cl)c(O)cc2[C@@H](c2ccccc2)C1`, the “surface PD-L1 immunofluorescence intensity” value was 0.923.

Regarding `C#Cc1cccc(Nc2ncnc3cc4c(cc23)OCCOCCOCCO4)c1` [Icotinib], the “surface PD-L1 immunofluorescence intensity” value was determined as 1.01 ± 0.06. The value for `CCc1c(C)[nH]c2c1C(=O)C(CN1CCOCC1)CC2` (stereo not drawn) [Molindone hydrochloride] was 0.973; that for `NC(=O)CNCCC(c1ccccc1)c1ccccc1` [N20C hydrochloride] was 1.02. In the case of `c1ccc(-c2[nH]ncc2-c2ccnc3ccccc23)nc1`, the “surface PD-L1 immunofluorescence intensity” value is 0.987. As for `N[C@@H](CCC(=O)N[C@@H](CS)C(=O)NCC(=O)O)C(=O)O` [Glutathione], the figure is 0.976; as for `CCC1(c2ccccc2)NC(=O)N(C)C1=O` (stereo not drawn) [Mephenytoin], 1.17; as for `O=C(O)CNC(=O)C(CS)Cc1ccccc1` (racemic) [DL-Thiorphan], 1.09. With `CCCC1C(=O)N2C(N(C)C)=Nc3ccc(C)cc3N2C1=O` (stereo not drawn) [Azapropazone], the “surface PD-L1 immunofluorescence intensity” value came out at 1.03. As for `c1cnc(N2CCN(Cc3ccc4c(c3)OCO4)CC2)nc1` [Piribedil hydrochloride], the figure is 0.973; as for `c1cnc(N2CCN(Cc3ccc4c(c3)OCO4)CC2)nc1` [Piribedil], 1.07.
